Where “and” joins values, the source holds several entries; their conditions need not be identical. Equal values may be shown once. The list shows a part of the results. Shown are side measurements of this screen, not its main read-out; they come without a call. Compounds called inactive in the main read-out are mostly missing here. Words in brackets tell the shape of the fitted curve; partial curves, single points and poor fits give uncertain potencies.
Assay: qHTS Assay for Lipid Storage Modulators in Drosophila S3 Cells;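 as to cell number change: cells counted by Cell Tracker Red CMTPX staining in the red channel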
Conditions: BODIPY lipid droplet fluorescence, 18-24 h; for cell number change: measured here: cell count max response, cells fed with added oleic acid
Summary of the method: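 Laser-scanning cytometry quantifies lipid droplet accumulation (500–530 nm total intensity; droplet/cell object ratio) in oleic acid-fed (400 uM added) Drosophila S3 cells treated with a concentration series. 20 uM Triacsin C defined 100% inhibition.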

[1] = measured here: lipid fluorescence (Fed channel) AC50, cells fed with added oleic acid
[2] = measured here: cell number channel AC50, cells fed with added oleic acid

Compound | cell number change | AC50 [1] | AC50 [2]
OCCOCCN1CCN(C2=Nc3ccccc3Sc3ccccc32)CC1 | -6% and -9.51% | 1.3 µM [falling, full curve] and 3.66 µM [rising, single point] | –
COc1cc(OC)cc(C(=O)NCC(=O)N2CCC(C)CC2)c1 | 36.9% | – | 4.61 µM [rising, full curve]
CC/C(=C1/C(=O)CC(C)(C)C(C(=O)OC)C1=O)N1CCCC1 (stereo not drawn) | 2.64% | 0.0517 µM [falling, full curve, poor fit] | –
O=C(CCc1ccccc1)NCc1ccncc1 | 11.9% | 29.1 µM [rising, single point] | –
CS(=O)(=O)N1CCN(c2ccccc2NC(=O)c2ccc(-c3ccc(Cl)cc3Cl)o2)CC1 | – | 0.731 µM [rising, full curve] | 0.92 µM [rising, full curve]
O=C(Cc1csc(N2CCOCC2)n1)N/N=C/c1cccc(O)c1 | -1.86% | – | –
Cc1ccc(S(=O)(=O)N2CCOCC2)cc1NC(=O)CN1CCC(Cc2ccccc2)CC1 | -1.59% | 0.651 µM [falling, full curve, poor fit] | 6.51 µM [rising, single point]
Cc1cc(NS(=O)(=O)c2ccc(NC(=O)C(C)N3C(=O)c4ccccc4C3=O)cc2)nc(C)n1 (stereo not drawn) | -39.9% | 29.1 µM [falling, single point] | 5.17 µM [falling, partial curve]
O=C(CCC(=O)Nc1cccc([N+](=O)[O-])c1)NCc1ccccc1 | -2.99% | 23.1 µM [falling, single point] | –
COC(=O)c1cccc(C(=O)N2CCCC(Nc3ccc(C)c(C)c3)C2)c1 (stereo not drawn) | 60.1% | – | 25.9 µM [rising, single point]
O=C1c2ccccc2C(=O)N1CC(O)CNc1ccc(Br)cc1 (stereo not drawn) | -1.13% | – | –
COc1cc2cc(/C=C/C(=O)c3ccco3)c(Cl)nc2cc1OC | 8.9% | – | –
Cc1cc(OC(C)C(=O)NCCN2CCOCC2)c2c(C)c(C)c(=O)oc2c1 (stereo not drawn) | -11.9% | – | –
COCC(C)n1c(-c2ccc3c(c2)NC(=O)CO3)csc1=Nc1ccc(OC(F)F)cc1 (stereo not drawn) | 7.17% | 4.11 µM [rising, partial curve] | 2.31 µM [rising, partial curve]
C=CCNC(=O)C1CCN(S(=O)(=O)CC)CC1 | 101% | – | –
O=C1c2ccccc2NC2(CCCCC2)N1c1ccc(O)cc1 | 6.12% | 0.259 µM [falling, full curve] | –
COc1ccc(-c2ocnc2C(=O)N2CCN(C(c3ccccc3)c3ccccc3)CC2)cc1 | 8.79% | 0.164 µM [rising, full curve, poor fit] | –
COc1cc(C(=O)Nc2cccc(S(=O)(=O)N3CCCC3)c2)c([N+](=O)[O-])cc1OC | -1.6% | 6.51 µM [rising, single point] | –
O=C(CSc1ncc(C(F)(F)F)cc1Cl)N1CCN(S(=O)(=O)c2ccc3ccccc3c2)CC1 | 33.8% | – | 1.64 µM [rising, full curve, poor fit]
Cc1ccccc1COC(=O)CCC1=NS(=O)(=O)c2ccccc2N1 | -48.2% | – | 20.6 µM [falling, single point]
Cn1c(-c2ccccc2)cc(=O)c2ccccc21 | – | 6.51 µM [rising, single point] | –

Compound | cell number change | AC50 [1] | AC50 [2]
c1ccc(Sc2nc(N3CCCCC3)nc(N3CCCCC3)n2)nc1 | -34.2% | 14.6 µM [falling, partial curve] | –
CCC(C(=O)OCCOCCN(CC)CC)c1ccccc1 (stereo not drawn) | -28.1% | – | –
Cc1cc(OCC(=O)O/N=C(\N)c2ccccc2)cc(C)c1Cl | -17.4% | 29.1 µM [falling, single point] | –
CC1CC(C)CN(C(=O)c2cccc(S(=O)(=O)Nc3cc(C(F)(F)F)ccc3Cl)c2)C1 (stereo not drawn) | -15.9% | 5.8 µM [falling, single point] | –
N/C(=N\OC(=O)N1CCOCC1)c1ccc(Cl)cc1 | -18.6% | 0.0291 µM [falling, full curve, poor fit] | –
COc1ccc(N(S(=O)(=O)c2ccccc2)S(=O)(=O)c2ccccc2)c(N)c1 | 12.6% | – | 0.326 µM [rising, partial curve, poor fit]
CCOC(=O)Nc1sc(NS(=O)(=O)c2ccccc2)nc1C | 11.4% | 2.59 µM [rising, single point] | –
CC1(C)Oc2ccc(C(=O)N3CCOCC3)cc2N(CC(=O)N2CCOCC2)C1=O | -27.4% | 4.61 µM [falling, single point] | 0.0291 µM [falling, full curve, poor fit]
COc1ccc2oc(C(=O)OCC(=O)N(C)CC(=O)Nc3ccc(C)cc3)c(C)c2c1 | 38.8% | 20.6 µM [falling, single point] | 29.1 µM [rising, single point]
Cc1cccc2sc(NNC(=O)c3ccc4c(c3)OCCO4)nc12 | 3.49% | 29.1 µM [rising, single point] | –
Fc1ccc2nc(Nc3nc4c(F)cc(F)cc4s3)sc2c1 | -45.1% | – | 29.1 µM [falling, single point]
Cc1cccc(S(=O)(=O)NCCC(=O)OCC(=O)Nc2ccc(C#N)cc2)c1 | -1.8% | 29.1 µM [rising, single point] | –
C/C(=N\NC(=O)CC#N)c1cc2ccc(O)cc2oc1=O | -40% | – | –
O=C(C[n+]1ccccc1)NNc1ccccc1 | 18.9% | 0.82 µM [rising, full curve, poor fit] | 0.82 µM [rising, full curve, poor fit]
Cc1ccc(NC(=O)Nc2ccon2)cc1 | 2.21% | – | –
Cc1cccc(NC(=O)C2Cc3ccccc3CN2C(=O)OCc2ccccc2)c1C (stereo not drawn) | -45.1% | – | 29.1 µM [falling, single point]
O=C(NCc1cccnc1)NC(C(F)(F)F)C(F)(F)F | -9.01% | – | –
Cc1c(NC(=O)N2CCCCCC2)c(=O)n(-c2ccccc2)n1C | -23% | 29.1 µM [falling, single point] | 3.66 µM [falling, full curve, poor fit]
Cc1ccc(S(=O)(=O)N2CCN(C(=O)COC(=O)/C=C/c3ccccc3F)CC2)c(C)c1 | 5.94% | 29.1 µM [rising, partial curve, poor fit] | –
O=S(=O)(O)c1nnc2sc3ccccc3n12 | 11.4% | – | –
O=C(CN(c1ccc(Br)cc1)S(=O)(=O)c1ccc(Cl)c([N+](=O)[O-])c1)NCCc1ccccc1 | -20.4% | – | –

Compound | cell number change | AC50 [1] | AC50 [2]
COC(=O)c1ccc(NC(=S)NC(=O)c2c(Cl)cnn2C)cc1 | -30.2% | – | 0.731 µM [rising, full curve]
Cc1cc(S(=O)(=O)N2CCC3(CC2)OCCN3S(=O)(=O)c2cccs2)ccc1F | 11.4% | – | –
Cn1cccc1/C=N/N1CCN(Cc2cccc3ccccc23)CC1 | – | – | 0.13 µM [rising, partial curve, poor fit]
COc1cc(C(=O)Oc2cccc(C=O)c2)cc(OC)c1OC | -4.85% | – | 2.59 µM [falling, single point]
C/C(=C1/SC(=S)N(CCC(=O)O)C1=O)c1ccc(O)cc1 | -7.93% | – | –
O=C(NCC(=O)N(c1ccc(F)cc1)C(C(=O)NC1CCCC1)c1ccncc1)c1ccco1 (stereo not drawn) | -0.952% | – | –
COc1ccc2c(c1)C(=O)N(c1ccccc1)C(=O)C2 | – | 13 µM [falling, partial curve, poor fit] | –
O=C(CN1C(=O)NC2(CCCC2)C1=O)Nc1nc(-c2ccc(F)c(F)c2)cs1 | -2.06% | 0.082 µM [falling, partial curve, poor fit] | –
c1ccc(-c2nn3c(C4CCCCC4)nnc3s2)nc1 | 8.39% | 29.1 µM [rising, partial curve, poor fit] | –
Cc1ccc(S(=O)(=O)Cn2nnnc2C(CC(C)C)N2CCN(C(=O)c3ccco3)CC2)cc1 (stereo not drawn) | -28.8% | 11.6 µM [falling, partial curve] | –
Cc1cc(C)nc(SCc2cc(=O)c(OC(=O)c3ccc(S(=O)(=O)N4CCCC4)cc3)co2)n1 | 20.1% | 14.6 µM [rising, partial curve, poor fit] | –
COc1cccc(C2CC(c3cccc(OC)c3)n3nc(N)nc3N2)c1 (stereo not drawn) | 50.2% | – | 8.2 µM [rising, partial curve]
C=CCNC(=O)CSc1nnc(-c2ccccn2)n1Cc1ccccc1 | 0.75% | 0.0731 µM [falling, single point] | –
Cc1cc(C)cc(NC(=O)CSc2nc3[nH]c(=O)cc(O)c3s2)c1 | 23.5% | 0.58 µM [falling, single point] | –
Cc1ccc(-c2nn(-c3ccccc3)cc2/C=C/C(=O)Nc2cccc(S(N)(=O)=O)c2)cc1 | -28.4% | 20.6 µM [falling, single point] | –
OC(CNCCCN1CCCCC1)COc1ccccc1 (stereo not drawn) | -0.356% | 32.6 µM [falling, single point] | –
NS(=O)(=O)c1ccc(CCNC(=O)CNC(=O)c2ccccc2F)cc1 | -3.85% | – | –
CC1CCN(CCc2nc3cc(NC(=O)COc4ccc([N+](=O)[O-])cc4)ccc3n2C)CC1 | 26.9% | 29.1 µM [rising, single point] | –
Cc1occc1C(=O)NCc1ccc(C(=O)O)o1 | -64.1% | – | 4.61 µM [falling, full curve]
COc1cccc(Cn2c(=S)[nH]c3ccc(N4CCOCC4)cc3c2=O)c1 | – | 0.146 µM [rising, full curve, poor fit] | 0.0731 µM [rising, full curve, poor fit]

An excerpt of these results, comma-delimited:
Compound,cell number change,AC50 [1],AC50 [2]
COc1cc(C(=O)Oc2cccc(C=O)c2)cc(OC)c1OC,-4.85%,–,"2.59 µM [falling, single point]"
O=C(NCC(=O)N(c1ccc(F)cc1)C(C(=O)NC1CCCC1)c1ccncc1)c1ccco1 (stereo not drawn),-0.952%,–,–
Cc1ccc(S(=O)(=O)Cn2nnnc2C(CC(C)C)N2CCN(C(=O)c3ccco3)CC2)cc1 (stereo not drawn),-28.8%,"11.6 µM [falling, partial curve]",–
OC(CNCCCN1CCCCC1)COc1ccccc1 (stereo not drawn),-0.356%,"32.6 µM [falling, single point]",–
Cc1occc1C(=O)NCc1ccc(C(=O)O)o1,-64.1%,–,"4.61 µM [falling, full curve]"
